The values below come from PMC5399837.

The chains are these.
B1: Probable malate:quinone oxidoreductase (enzyme, UniProt Q9JXD7 1-488)
chain: MAEATDVVLVGGGIMSATLGVLLKELEPSWEITLIERLEDVALESSNAWNNAGTGHSALCELNYAPLGANGIIDPARALNIAEQFHVSRQFWATLVAEGKLEDNSFINAVPHMSLVMNEDHCSYLQKRYDAFKTQKLFENMEFSTDRNKISDWAPLMMRGRDENQPVAANYSAEGTDVDFGRLTRQMVKYLQGKGVKTEFNRHVEDIKRESDGAWVLKTADTRNPDGQLTLRTRFLFLGAGGGALTLLQKSGIPEGKGYGGFPVSGLFFRNSNPETAEQHNAKVYGQASVGAPPMSVPHLDTRNVDGKRHLMFGPYAGFRSNFLKQGSLMDLPLSIHMDNLYPMLCAGWANMPLTKYLLGELRKTKEERFASLLEYYPEANPDDWELITAGQRVQIIKKDSEKGGVLQFGTEIVAHADGSLAALLGASPGASTAVPLMIRLMHQCFPERAPSWEDRLKELVPGYGIKLNENPERADEIIAYTAKVLDI
B2: PilO protein (protein, UniProt Q7DD78 1-215)
chain: MASKSSKTNLDLNNLHLLNLPARLFIALLAVAAVLGLGYAGLFKSQMESLEEYEAKETELKNTYKQKSIDAASLNNLRDELASIRSAFDIMLKQLPTDAEIPNLVQELHQAGSSNGLRLDSVMPQPPVDDGPIKRLPYSISITGNYEQISQFTRDVGSLSRIITLESLKIAQSPENGGNPDGKSSILNLSAIATTYQAKSVEELAAEAAQNAEQK
B3: Septum site-determining protein MinD (protein, UniProt Q7DDS7 1-271)
chain: MAKIIVVTSGKGGVGKTTTSASIATGLALRGYKTAVIDFDVGLRNLDLIMGCERRVVYDLINVIQGEATLNQALIKDKNCENLFILPASQTRDKDALTREGVEKVMQELSGKKMGFEYIICDSPAGIEQGALMALYFADEAIVTTNPEVSSVRDSDRILGILQSKSHKAEQGGSVKEHLLITRYSPERVAKGEMLSVQDICDILHIPLLGVIPESQNVLQASNSGEPVIHQDSVAASEAYKDVIARLLGENREMRFLEAEKKSFFKRLFGG
B4: PilM protein (protein, UniProt Q9JY02 1-371)
chain: MRLFKSLKNPKKTDAKLPKKSSGLNNRAAIGIDIDQHSIKMVQLSGRSLNQIQLEKYVIAKLPKNIIQGNKVQNYDQLVTYLQQAYAKLGTSCKNIIASVPQNLATIEQLTYTDKDAELDLQGFVESSISEVSSISLEEANYDYQVLSQSAAGEAVLAVASRKDEIEPLIDAFNAAGMKLSALDVDIFGQYNAYALWINHFAPELAAEKVAIFGVYAAQTYALVIQDGKILYKQETSVSEEQLNQLIQRTYQVTEEKAEEIINSPQKPSDYQESVANYFNQQITQEIQRVLQFYYTTQTADDMTDIKHILLTGEAARQEGIAQTVASQTNADVQCVHPARYFADNLKTDKQQFELDAPTLTRAFGLAVRGL
B5: Cell division protein FtsZ (protein, UniProt P0A0S6 1-392)
chain: MEFVYDVAESAVSPAVIKVIGLGGGGCNAINNMVANNVRGVEFISANTDAQSLAKNHAAKRIQLGTNLTRGLGAGANPDIGRAAAQEDREAIEEAIRGANMLFITTGMGGGTGTGSAPVVAEIAKSLGILTVAVVTRPFAYEGKRVHVAQAGLEQLKEHVDSLIIIPNDKLMTALGEDVTMREAFRAADNVLRDAVAGISEVVTCPSEIINLDFADVKTVMSNRGIAMMGSGYAQGIDRARMATDQAISSPLLDDVTLDGARGVLVNITTAPGCLKMSELSEVMKIVNQSAHPDLECKFGAAEDETMSEDAIRITIIATGLKEKGAVDFVPAREVEAVAPSKQEQSHNVEGMIRTNRGIRTMNLTAADFDNQSVLDDFEIPAILRRQHNSDK
B6: Glutaredoxin (protein, UniProt Q7DDL4 1-103)
chain: MASIHDQIKEVVTTHRVVLFMKGTKQFPQCGFSSRAVQILNAAGCTDYVTVNVLENPEVRQGIKEYSDWPTIPQLYVNGEFVGGSDILMEMYEAGELQELLKA

Results are given in words; binding and its absence hold for the method and conditions named. Binding seen in cells or lysates may run through a third protein. These calls come from enrichment with a bait or labelling near it, and not all partners need be listed. No binding means not detected with the bait.

One test has as its target T1, Fimbrial protein; PilS cassette (Neisseria meningitidis (endogenous in strain MC58)) (UniProt P05431).
T1 sequence: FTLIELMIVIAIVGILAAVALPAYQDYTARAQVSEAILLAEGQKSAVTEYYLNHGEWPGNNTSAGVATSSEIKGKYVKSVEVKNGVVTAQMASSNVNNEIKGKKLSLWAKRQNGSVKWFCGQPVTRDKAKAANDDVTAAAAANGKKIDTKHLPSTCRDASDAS
Briefly: affinity purification with mass spectrometry; Co-IP with rabbit polyclonal antibody raised against purified Tfp (PilE), Dynabeads Co-Immunoprecipitation Kit, Nm MC58 wildtype lysate; eluate digested in solution with trypsin, LC-MS/MS.
Regarding B1, the binding result is on record as “no binding”.
On the same count and under the same terms, the entry for B2 is “no binding”; for B3 it is “no binding”.
With B4, the binding entry is “no binding”.
As for B5, the binding entry is “no binding”.
Turning to B6, the binding entry is listed as “no binding”.

A further test deals with DNA processing chain A (Neisseria meningitidis (endogenous in strain MC58)) (UniProt Q9K1K1). Briefly: affinity purification with mass spectrometry; Dynabeads coupled to rabbit polyclonal anti-DprA antibody, incubated with Nm MC58 wildtype lysate (100 mM NaCl, 2 mM MgCl, 1 mM DTT, 1% DDM) at 4 °C for 1.5 h; eluate digested in solution with trypsin, LC-MS/MS; ΔdprA lysate as control.
Turning to B1, the binding entry is recorded as “binds”.
In the case of B2, the binding entry is listed as “no binding”.
Regarding B3, the binding entry was “binds”.
As to B4, the binding result is “no binding”.
Consider B5, for which the binding result is given as “binds”.
For the molecule B6, the binding result is “no binding”.

The next test has as its target T2, Pilus assembly protein PilG (Neisseria meningitidis (endogenous in strain MC58)) (UniProt Q7DDR1).
T2 sequence: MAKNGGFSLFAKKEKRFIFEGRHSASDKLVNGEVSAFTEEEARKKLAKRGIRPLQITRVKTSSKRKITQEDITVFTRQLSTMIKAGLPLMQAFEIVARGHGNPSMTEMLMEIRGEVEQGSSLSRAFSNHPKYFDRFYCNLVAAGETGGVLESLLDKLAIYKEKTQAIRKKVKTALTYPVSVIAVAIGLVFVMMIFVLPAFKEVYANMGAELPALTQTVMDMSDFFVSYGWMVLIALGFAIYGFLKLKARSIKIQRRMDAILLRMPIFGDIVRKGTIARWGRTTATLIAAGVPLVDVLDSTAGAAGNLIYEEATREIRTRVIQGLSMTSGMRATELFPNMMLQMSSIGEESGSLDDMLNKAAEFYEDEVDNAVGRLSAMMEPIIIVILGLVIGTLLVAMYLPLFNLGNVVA
As to the kind of experiment: affinity purification with mass spectrometry; Dynabeads coupled to rabbit polyclonal anti-PilG antibody, incubated with Nm MC58 wildtype lysate (100 mM NaCl, 2 mM MgCl, 1 mM DTT, 1% DDM) at 4 °C for 1.5 h; eluate digested in solution with trypsin, LC-MS/MS; ΔpilG lysate as control.
Regarding B1, the binding result is recorded as “no binding”.
Still for that read-out and setting: under B2 stands “no binding”.
For B3, the binding result is “no binding”.
Turning to B4, the binding result is “no binding”.
On the same count and under the same terms, the entry for B5 is “no binding”; for B6 it is “no binding”.
